The target in assay [1] is c-Met IPT3-4 (ectodomain fragment) (human). Nature of the assay: ELISA on coated c-Met ectodomains. In general terms: ELISA stands for enzyme-linked immunosorbent assay.
The target of assay [2] is Decoy c-Met (extracellular domain of human c-Met) (human). Nature of the assay: ELISA, c-Met ectodomains coated at 1 µg/ml, HRP-Protein A.
The target of assay [3] is c-Met SEMA domain (ectodomain fragment) (human). Nature of the assay: ELISA, immobilized SEMA domain, anti-Fc detection.
Assay [4] has the same target. Nature of the assay: bispecificity ELISA in the set-up of FIG. 29: immobilized SEMA domain (words of paragraph 768; the drawing of FIG. 29 shows SEMA-PSI), Lambda-Select and Kappa-Select purified bispecific, anti-human Cκ detection, OD620.
Assay [5] shares this target. Nature of the assay: ELISA, immobilized SEMA domain, anti-Cκ detection.
Assay [6] shares this target. Nature of the assay: bispecificity ELISA on immobilized SEMA domain (set-up of FIG. 29), samples taken after each purification step of transfection 6, anti-human Cκ detection, OD620.
The target is the same in assay [7]. Nature of the assay: ELISA, immobilized SEMA domain, anti-human Cκ or anti-human Fc detection.
The target is the same in assay [8]. Nature of the assay: ELISA: immobilized SEMA domain (words of paragraph 768; the drawing of FIG. 29 shows SEMA-PSI), Lambda-Select and Kappa-Select purified bispecific, anti-human Fc detection, OD620.
For assay [9] the target is unchanged. Nature of the assay: ELISA on immobilized SEMA domain, samples taken after each purification step of transfection 6, anti-human Fc detection, which also sees the parental 36C4 format left in the earlier steps, OD620.
In assay [10] the target is c-Met SEMA-PSI-IPT1-2 (ectodomain fragment) (human). Nature of the assay: ELISA, c-Met ectodomains coated at 1 µg/ml, HRP-Protein A.
In assay [11] the target is c-Met SEMA domain (ectodomain fragment) (human). The assay is described as above.
Assay [12] deals with c-Met SEMA-PSI (ectodomain fragment) (human). Nature of the assay: bispecificity ELISA: SEMA-PSI coated, protein A purified antibody mixture, mouse anti-human kappa light chain antibody and HRP donkey anti-mouse, so that only an antibody with a SEMA-PSI binding lambda arm and a kappa arm is seen, 620 nm.
Assay [13] has the same target. Nature of the assay: bispecificity ELISA, SEMA-PSI coated, anti-human Cκ detection.
Assay [14] shares this target. Nature of the assay: ELISA: SEMA-PSI coated, protein A purified antibody mixture of the co-transfection (parental mAbs and bispecific), HRP goat anti-human Fc, which detects every SEMA-PSI binding mAb of the mixture, 620 nm.
Assay [15] deals with c-Met SEMA domain (ectodomain fragment) (human). Nature of the assay: ELISA on immobilized SEMA domain, samples taken after each purification step of transfection 5, anti-human Fc detection, which also sees the parental 36C4 format left in the earlier steps, OD620.
Assay [16] shares this target. Nature of the assay: bispecificity ELISA on immobilized SEMA domain (set-up of FIG. 29), samples taken after each purification step of transfection 5, anti-human Cκ detection, OD620.
Assay [17] addresses c-Met SEMA-PSI (ectodomain fragment) (human). Nature of the assay: ELISA: SEMA-PSI coated, parental mAb, HRP goat anti-human Fc, 620 nm.
Assay [18] has the same target. Nature of the assay: ELISA, SEMA-PSI coated, anti-human Fc detection.
Assay [19] deals with c-Met SEMA-PSI-IPT1-2 (ectodomain fragment) (human). Nature of the assay: ELISA, coated c-Met ectodomains.
Assay [20] deals with Decoy c-Met (extracellular domain of human c-Met) (human). Nature of the assay: ELISA: c-Met ectodomain coated at 1 µg/ml, mAb in three-fold dilutions from 1 µg/ml, HRP-Protein A, TMB, OD 450.
Assay [21] addresses c-Met SEMA-PSI-IPT1-2 (ectodomain fragment) (human). Described as above.

Results are given in words; binding and its absence hold for the method and conditions named. For some assays here: A result given as binding can be weak or reduced; the word gives no strength.

B1: 20A11 mAb (antibody, human IgG1, V domains shown)
VH: QVQLVESGGGLVQPGGSLRLSCAASGFTFDDYAMSWVRQAPGKGLEWVSAISWNGSSTYYAESMKGRFTISRDNAKNTLYLQMNSLKSEDTAVYYCAKDLIGSHDYWGQGTQVTVSS
VL: QAVLTQPPSVSGTLGKTLTISCAGTSSDVGYGNYVSWYQQLPGTAPKLLIYAVSTRASGIPDRFSGSKSGNTASLTISGLQSEDEADYYCASYRSSNNYAFGAGTKLTVL
For the molecule B1, the values for the binding result in assay [1] and in [2] were “no binding (tested: 1 µg/ml)” and “binds”, respectively.

B2: bispecific VHVL36C4+VHVK38H10 (Example 31, sample 6) (bispecific antibody, V domains shown)
VH 1: QVQLVESGPGLVKPSQTLSLTCAVSGGSITTNYYYWSWIRQSPGKGLEWMGVIAYDGSTDYSPSLKSRTSISRDTSKNQFSLQLSSVTPEDTAVYYCARDVRVIATGWATANALDAWGQGTQVTVSS
VL 1: QSVLTQPPSVSGSPGKTVTISCAGTSSDVGYGNYVSWYQQLPGTAPKLLIFAVSYRASGIPDRFSGSKSGNTAFLTISGLQSEDEADYYCASYRSSNNAAVFGGGTHLTVL
VH 2: EVQLVQPGVELRNPGASVKVSCKASGYIFTMNSIDWVRQAPGQGLEWMGRIDPEDGGTKYAQKFQGRVTFTADTSTSTAYVELNSLRSEDTAVYYCARVDDYYLGYDYWGQGTQVTVSS
VL 2: EIVMTQSPSSVTASAGEKVTINCKSSQSVLWRSNQKNYLAWYQQRLGQSPRLLISWASIRESGVPDRFSGSGSTTDFTLTISSFQPEDAAVYYCQQGYSFPYTFGSGTRLEIK
As for B2, the binding result in [3], in assay [4], in assay [5], in assay [6], in assay [7] and in assay [8] was “binds” throughout. For the same molecule, in assay [9], the binding entry is listed as “binds”.

B3: 38H10 mAb (antibody, human IgG1, V domains shown)
VH: B2 VH 2
VL: B2 VL 2
Turning to B3, the binding entry in [10] is recorded as “binds”.

B4: 12G4 mAb (antibody, human IgG1, V domains shown)
VH: QLQLVESGGGMAQPGGSLKLSCAASGFTFDDYAMTWVRQAPGKGLEWLSTISWNDINTYYAESMKDRFTISRDNAKNTLYLQMNSLESEDTAVYYCAKRRDNYYGTSGEYDYWGQGTQVTVSS
VL: QSALTQPPSVSGTLGKTVTISCAGTSSDIGNYNYVSWYQQLPGTAPKLLIYEVNKRPSGIPDRFSGSKSGNTASLSISGLQSEDEADYYCASYRSSNNVVFGGGTKLTVL
For the molecule B4, the binding result in assay [10] is on record as “binds”.

B5: 34H7 mAb (antibody, human IgG1, V domains shown)
VH: ELQLVESGGALVQPGGSLRLSCVESGFTFSSYAMSWVRQAPGKGLEWVSGIYKGGGPKYANSVKGRFTISRDNAKNTLYLQMNSLKPEDTAVYYCAKSGYGSSLGDFGSWGQGTQVTVSS
VL: QAGLTQLSSMSGSPGQTVTITCTGSSSNIGGGYYLSWYQHLPGTAPKLLIYSNINRASGVPDRFSGSTSGISASLTITGLQAEDEADYYCSSWDDSVSGPVFGGGTSLTVL
As to B5, the binding result in [11] is listed as “binds”.

B6: bispecific antibody 20F1:40B8 (Example 30) (bispecific antibody, V domains shown)
VH 1: EVQVQESGPGLVKPSQTLSLTCTVSGGSMTGNYYAWSWIRQPPGKGLEWMGVIAYDGSTYYSPSLKSRTSISRDTSKNQFSLQLSSVSPEDTAVYYCARGPGWYSGSRNDYWGQGTQVTVSS
VL 1: QSALTQPPSVSGSPGKTVTISCTGTNSDVGYGNYVSWYQQLPGMAPKLLIYDVNRRASGIADRFSGSKSGNTASLTISGLQSEDEGDYHCASYRSANNAVFGGGTHLFVL
VH 2: EVQLVQPGAELRNPGASVKVSCKASGYTFTNYVIDWVRQAPGQGLEWMGRIDPENGGTRYAQKFQGRVTFTADTSTSTAYVELSNLRSEDTAVYYCARLEDYELAYDYWGQGTQVTVSS
VL 2: DIVMTQTPSSVTASAGEKVTINCKSSQSVLLSSNQKNYLAWYQQRLGQSPRLLIYWASTRESGVPDRFSGSGSTTDFTLTISSFQPEDAAVYYCQQGVSFPLTFGQGTKVELK
With B6, the binding entry in [12], in [13] and in assay [14] was “binds” each time.

B7: bispecific VHVL36C4+VHVK40B8 (Example 31, sample 5) (bispecific antibody, V domains shown)
VH 1: B2 VH 1
VL 1: B2 VL 1
VH 2: B6 VH 2
VL 2: B6 VL 2
As for B7, the binding entry in assay [3], in assay [4], in assay [15], in assay [5], in assay [7] and in [8] was “binds” in each case. For the same molecule, the binding entry in assay [16] is recorded as “binds”.

B8: 20F1 mAb (antibody, human IgG1, V domains shown)
VH: B6 VH 1
VL: B6 VL 1
Take B8: the binding entry in assay [11], in [17] and in assay [18] was “binds” throughout.

B9: bispecific antibody 20F1:38H10 (Example 30) (bispecific antibody, V domains shown)
VH 1: B6 VH 1
VL 1: B6 VL 1
VH 2: B2 VH 2
VL 2: B2 VL 2
B9: the binding result in assay [12], in assay [13] and in [14] was “binds” each time.

B10: 40B8 mAb (antibody, human IgG1, V domains shown)
VH: B6 VH 2
VL: B6 VL 2
In the case of B10, the binding entry in [19], in [20], in [21] and in [10] was “binds” throughout.

The values above are taken from patent US20170349667A1.
